Measured values reported in PMC7819943, “Rice protein-binding microarrays: a tool to detect cis-acting elements near promoter regions in rice”.
This is one part of the list.

By UniProt entry, the sequences of proteins in these tests, tags left out.
UniProt Q0JBA9, entry or part of it: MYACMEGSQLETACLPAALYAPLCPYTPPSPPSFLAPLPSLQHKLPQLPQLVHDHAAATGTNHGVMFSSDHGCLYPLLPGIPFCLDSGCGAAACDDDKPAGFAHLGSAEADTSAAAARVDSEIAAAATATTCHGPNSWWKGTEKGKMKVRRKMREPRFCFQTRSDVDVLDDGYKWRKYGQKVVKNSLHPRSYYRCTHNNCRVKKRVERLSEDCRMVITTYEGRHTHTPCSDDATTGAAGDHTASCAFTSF

target: OsWRKY34 (Oryza sativa, UniProt Q0JBA9 1-250); experiment: protein-binding microarray (RPBM); PBS, 2% BSA, 51.3 ng/ul salmon testes DNA, 50 uM zinc acetate, 200 nM TF, 25 C, 1 h; high values mean tight binding; conditions: protein: recombinant; tags: N-terminal polyhistidine and DsRed monomer fusion (pET32a); label: CyDye5-dUTP incorporated in the synthesized complementary strand; 3' TTTTT single-stranded linker to array surface; dsDNA, one strand shown
Outline: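 For the binding signal, per-feature fluorescence intensity was read in arbitrary units on an Axon 4000B scanner. Before scanning, a 2% BSA-blocked custom Agilent array made double-stranded with Cy5-dUTP was washed after 1 h at 25 °C with 200 nM protein and 50 µM zinc acetate. The proteins were Ni–NTA-purified transcription factors with N-terminal polyhistidine and DsRed fusions, expressed in E. coli BL21-CodonPlus.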

| Sequence | binding signal |
| --- | --- |
| CACTCCTTGTTTGGTAATTGCATATGATGCCTCTGATTGTCGGAGTCACCTAGTGCAG | 8420 fluorescence intensity (a.u.) |
| AAATTGCTGAGACGCGATTACACCGACTCTGGTCGTCTCACGGAGTCACCTAGTGCAG | 8700 fluorescence intensity (a.u.) |
| GTTAGGGTTTTCTTTTGATTGTCAGGGTTTTCTTTTGATTCGGAGTCACCTAGTGCAG | 13200 fluorescence intensity (a.u.) |
| ATTTTGTGTTCTCTATATTACCATATCTCTAGTCAATAATCGGAGTCACCTAGTGCAG | 10900 fluorescence intensity (a.u.) |
| CCGTATGCTCCGTATGTTCGAGGATCCCTTTCCGACCGCGCGGAGTCACCTAGTGCAG | 8920 fluorescence intensity (a.u.) |
| GTTTAGTTTAGTTGATCTTTTGTACATATGCATACTGTGTCGGAGTCACCTAGTGCAG | 10600 fluorescence intensity (a.u.) |
| GTGCGCGCCTTATATTGTGGGATAGTGGGAGTATATTTTCCGGAGTCACCTAGTGCAG | 13900 fluorescence intensity (a.u.) |
| GTGGTCGCATGGTACAATCTTTGAGTGATTTTTTTTCAACCGGAGTCACCTAGTGCAG | 9490 fluorescence intensity (a.u.) |
| GACAAACATCAACATGCACTCTACTTTATTTGCCAATAGGCGGAGTCACCTAGTGCAG | 8360 fluorescence intensity (a.u.) |
| GGCACAGAGGACCAGGAGGAGGTGCGGGAAGGGGCTGGCACGGAGTCACCTAGTGCAG | 8380 fluorescence intensity (a.u.) |
| TATTTTAATTTTCGGAGCTTTCATTTCAAGCGCCTTTTTTCGGAGTCACCTAGTGCAG | 8140 fluorescence intensity (a.u.) |
| TACCAGCAATAGCAACGTCGTCTCCGGCCGCTGCATGCCTCGGAGTCACCTAGTGCAG | 8640 fluorescence intensity (a.u.) |
| AGTAGTCCTTCAAGCTCCAATCATATACCCCTGATACTAACGGAGTCACCTAGTGCAG | 8300 fluorescence intensity (a.u.) |
| TATCATATAACTTTTTTTTTTGCGGGGCATATCATATAACCGGAGTCACCTAGTGCAG | 8440 fluorescence intensity (a.u.) |
| TCTCCGCCGTGTTCCTCCCGCCCGCCGCCGCCTTCCCGCCCGGAGTCACCTAGTGCAG | 10400 fluorescence intensity (a.u.) |
| CCTTCGATTGACCTCCTCATCCTCTTCCCCTGCTTTCTTTCGGAGTCACCTAGTGCAG | 9720 fluorescence intensity (a.u.) |
| TTTTGAGTTTTTGTGTGAACTGTTTGACCACTCGTCTTATCGGAGTCACCTAGTGCAG | 8250 fluorescence intensity (a.u.) |
| CGCGGGGAGGGAGGGAGGGAAGGAGAGGAGGAAGAGGATGCGGAGTCACCTAGTGCAG | 9410 fluorescence intensity (a.u.) |
| ATGTGCTATTTTCCTTTGTTTTTCCTTTTATGTTATTTTTCGGAGTCACCTAGTGCAG | 14900 fluorescence intensity (a.u.) |
| CCTCCTCACCACCACCACCACCATATATTCCCTTGCACACCGGAGTCACCTAGTGCAG | 9320 fluorescence intensity (a.u.) |
| ACACAACCCAAGTGAGCACTAGCTTTATATTACCCGCGTCCGGAGTCACCTAGTGCAG | 9410 fluorescence intensity (a.u.) |

Single values from the results shown.
Entry of TACCAGCAATAGCAACGTCGTCTCCGGCCGCTGCATGCCTCGGAGTCACCTAGTGCAG under binding signal: 8640 fluorescence intensity (a.u.)
Entry of ACACAACCCAAGTGAGCACTAGCTTTATATTACCCGCGTCCGGAGTCACCTAGTGCAG under binding signal: 9410 fluorescence intensity (a.u.)
Entry of TTTTGAGTTTTTGTGTGAACTGTTTGACCACTCGTCTTATCGGAGTCACCTAGTGCAG under binding signal: 8250 fluorescence intensity (a.u.)

Going on with the list:

| Sequence | binding signal |
| --- | --- |
| GCCTGGTTTTATAAGTTGTGGGATGGGTTATATCTAGTATCGGAGTCACCTAGTGCAG | 28800 fluorescence intensity (a.u.) |
| GTGTTCCAATTGGCTCCACTCTTGGTGTATGATGCTTTCACGGAGTCACCTAGTGCAG | 8170 fluorescence intensity (a.u.) |
| CCTGACGCAACCTTTTGTCCTTATTGCTGGGTTCCTCTTGCGGAGTCACCTAGTGCAG | 8070 fluorescence intensity (a.u.) |
| CGTCCCTTGGACGTCATCTTCTCCTCACGTGCATTGCCTCCGGAGTCACCTAGTGCAG | 8520 fluorescence intensity (a.u.) |
| GCGCCTCCGCCTGCGCGCCCGGCACGCACACTCGCGTCGCCGGAGTCACCTAGTGCAG | 8090 fluorescence intensity (a.u.) |
| GCCCCTTCTTCATGCGCCACCGCCGCCTCCTCGTTCTTCCCGGAGTCACCTAGTGCAG | 8860 fluorescence intensity (a.u.) |
| GATAGAAAGGGGTCAAAATGGCAAGGGGCTATTTGGTAATCGGAGTCACCTAGTGCAG | 8200 fluorescence intensity (a.u.) |
| CAAATCTGTATATAGATCGAGCCTCTTATTCTGCTTCTTCCGGAGTCACCTAGTGCAG | 10200 fluorescence intensity (a.u.) |
| CCCTTACATCTCTCCATTGTTCTTTTTGCTCTCTTTCAAACGGAGTCACCTAGTGCAG | 10400 fluorescence intensity (a.u.) |
| AATATTAGGAGGTGGGATTTTCTGTCACTAGATATGTAGACGGAGTCACCTAGTGCAG | 8900 fluorescence intensity (a.u.) |
| ACGTTTTTCCTGCGCTCCAATCAATCGACCATTCCTATGTCGGAGTCACCTAGTGCAG | 8050 fluorescence intensity (a.u.) |
| GCGTGCAACATGTTCCTCTTTGCGTTCGATCCTTCAAGTTCGGAGTCACCTAGTGCAG | 11300 fluorescence intensity (a.u.) |
| TCGGCATCTCTCCTGCGCGGGCGAGTCGTCCTCCTCGTCCCGGAGTCACCTAGTGCAG | 8110 fluorescence intensity (a.u.) |
| TCTGGTGTGTTTGTATGGATGGGGTGATGTCCATGGGAGACGGAGTCACCTAGTGCAG | 11100 fluorescence intensity (a.u.) |
| TAATATACTCTCTATCATAGGTGGTGTTCTTTTCTCCTAACGGAGTCACCTAGTGCAG | 9610 fluorescence intensity (a.u.) |
| TTTACACTTACATTCCTATTAAAATCCTACGTTTTTCCTGCGGAGTCACCTAGTGCAG | 9400 fluorescence intensity (a.u.) |
| ATTGTAACATAATTATCACTCCTAGGTTTATTTTCAAGCACGGAGTCACCTAGTGCAG | 8270 fluorescence intensity (a.u.) |
| GGGGTTGGCCAATGGATGAATCGGGTCATTTTATCCGCTCCGGAGTCACCTAGTGCAG | 9330 fluorescence intensity (a.u.) |
| GGGTGGGATGGATTGGTCCTAGGAGAGGAATATTCCTCTCCGGAGTCACCTAGTGCAG | 8460 fluorescence intensity (a.u.) |
| TACGTCAACCGTCTCCATCCACTCAAACAGCGGGCTAAAACGGAGTCACCTAGTGCAG | 8410 fluorescence intensity (a.u.) |
| GGAGGGGCGGTGGCCGCCGGCGGCCCGCGCGGCGGGAGCGCGGAGTCACCTAGTGCAG | 9240 fluorescence intensity (a.u.) |
